Literature values in patent US20240310365A1, “DEVICE FOR EVALUATING INNER EAR DRUG DELIVERY” (North Carolina State University, priority 2023, published 2024).

Conditions: humans; after intratympanic DSP 0.4-1.8 ml of 4 mg/ml; 20 μl perilymph; cited from earlier work

C[C@@H]1C[C@H]2[C@@H]3CCC4=CC(=O)C=C[C@]4(C)[C@@]3(F)[C@@H](O)C[C@]2(C)[C@@]1(O)C(=O)COP(=O)(O)O [DSP, dexamethasone sodium phosphate]
DSP concentration in perilymph: about 7.5 μg/mL
